Measurements taken from publication doi:10.1101/2025.05.02.651858.
Numbering of substitutions follows the chain as printed. Names and notes keep the numbering of the source. Results are given in words; binding and its absence hold for the method and conditions named.

Assays:
[1] = target: ϕC31 integrase S12A/Y475H (Streptomyces phage ϕC31) (UniProt Q9T221); assay: SEC-MALS
[2] = target: ϕC31 integrase S12A/D477K (Streptomyces phage ϕC31) (UniProt Q9T221); assay: SEC-MALS

B1: ϕC31 integrase S12A/Y475H (enzyme, UniProt Q9T221 1-605)
chain: MDTYAGAYDRQARERENSSAASPATQRSANEDKAADLQREVERDGGRFRFVGHFSEAPGTSAFGTAERPEFERILNECRAGRLNMIIVYDVSRFSRLKVMDAIPIVSELLALGVTIVSTQEGVFRQGNVMDLIHLIMRLDASHKESSLKSAKILDTKNLQRELGGYVGGKAPYGFELVSETKEITRNGRMVNVVINKLAHSTTPLTGPFEFEPDVIRWWWREIKTHKHLPFKPGSQAAIHPGSITGLCKRMDADAVPTRGETIGKKTASSAWDPATVMRILRDPRIAGFAAEVIYKKKPDGTPTTKIEGYRIQRDPITLRPVELDCGPIIEPAEWYELQAWLDGRGRGKGLSRGQAILSAMDKLYCECGAVMTSKRGEESIKDSYRCRRRKVVDPSAPGQHEGTCNVSMAALDKFVAERIFNKIRHAEGDEETLALLWEAARRFGKLTEAPEKSGERANLVAERADALNALEELHEDRAAGAYDGPVGRKHFRKQQAALTLRQQGAEERLAELEAAEAPKLPLDQWFPEDADADPTGPKSWWGRASVDDKRVFVGLFVDKIVVTKSTTGRGQGTPIEKRASITWAKPPTDDDEDDAQDGTEDVAA
- binding [1]: no binding

B2: ϕC31 integrase S12A/D477K (enzyme, UniProt Q9T221 1-605)
chain: B1 chain with H475Y, D477K
- binding [2]: no binding
